From PMC12713080
No constants are given. Whether binding was seen depends on the method and setting. In cells and extracts the contact can be indirect. Some binding calls cover weakened binding; strength is not graded here. For some of these results: Where a sequence is shown, tags or fusion partners need not be part of it.

Legend:
[1] = biological target: T1, transforming growth factor β‐activated kinase 1 (TAK1), endogenous (human (endogenous in MDA-MB-231)), O43318; assay: co-IP; endogenous proteins; MDA-MB-231 cells in serum-free medium with CuSO4 (50 µM) or/and TTM (50 µM) for 14 h; lysate with anti-TAK1 antibody and protein A/G agarose 12 h at 4 °C; washed 4 times with NETN buffer (20 mM Tris-HCl pH 8.0, 150 mM NaCl, 0.5% NP-40, 1 mM EDTA); details: remark: other sources report otherwise
T1 chain: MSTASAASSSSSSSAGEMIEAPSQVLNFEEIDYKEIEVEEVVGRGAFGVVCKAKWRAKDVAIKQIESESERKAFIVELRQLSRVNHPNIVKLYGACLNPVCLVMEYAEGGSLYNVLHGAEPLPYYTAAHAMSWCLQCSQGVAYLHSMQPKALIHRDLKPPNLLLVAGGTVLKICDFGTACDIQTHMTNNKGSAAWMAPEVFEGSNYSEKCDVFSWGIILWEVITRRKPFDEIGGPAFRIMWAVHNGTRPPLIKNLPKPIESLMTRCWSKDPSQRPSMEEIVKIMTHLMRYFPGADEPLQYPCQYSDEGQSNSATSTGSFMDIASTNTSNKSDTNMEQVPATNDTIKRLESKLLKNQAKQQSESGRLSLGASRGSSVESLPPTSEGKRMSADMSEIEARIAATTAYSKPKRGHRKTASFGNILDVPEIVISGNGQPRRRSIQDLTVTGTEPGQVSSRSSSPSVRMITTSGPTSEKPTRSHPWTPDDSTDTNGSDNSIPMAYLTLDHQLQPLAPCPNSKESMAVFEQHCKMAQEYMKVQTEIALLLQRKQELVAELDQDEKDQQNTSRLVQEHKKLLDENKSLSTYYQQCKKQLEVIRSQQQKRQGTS

HA‐TAK1 (human) = biological target: T2, HA‐TAK1 (human) (UniProt O43318); assay: co-IP; TAK1 wild type or copper binding-deficient TAK1, with copper (Figures S5J-L; legends not shown)
T2 sequence: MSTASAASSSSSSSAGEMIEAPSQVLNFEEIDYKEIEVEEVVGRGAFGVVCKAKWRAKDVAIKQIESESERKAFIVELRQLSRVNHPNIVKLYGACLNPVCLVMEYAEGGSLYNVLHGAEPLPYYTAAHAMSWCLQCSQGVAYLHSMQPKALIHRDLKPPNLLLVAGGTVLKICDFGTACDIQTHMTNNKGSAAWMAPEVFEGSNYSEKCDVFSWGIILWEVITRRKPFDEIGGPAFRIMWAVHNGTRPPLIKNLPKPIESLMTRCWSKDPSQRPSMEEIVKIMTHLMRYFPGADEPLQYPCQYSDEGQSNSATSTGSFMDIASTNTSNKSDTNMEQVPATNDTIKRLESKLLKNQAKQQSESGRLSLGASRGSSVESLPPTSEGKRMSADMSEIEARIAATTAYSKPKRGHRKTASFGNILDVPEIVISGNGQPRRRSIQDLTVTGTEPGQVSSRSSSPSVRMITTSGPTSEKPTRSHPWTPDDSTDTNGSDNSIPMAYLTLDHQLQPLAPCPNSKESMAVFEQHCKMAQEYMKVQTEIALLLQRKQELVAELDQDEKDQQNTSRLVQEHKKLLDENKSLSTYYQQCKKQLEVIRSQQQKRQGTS

HA‐TAK1‐2A (human) = biological target: T3, HA‐TAK1‐2A (human) (UniProt O43318); assay: as above
T3 sequence: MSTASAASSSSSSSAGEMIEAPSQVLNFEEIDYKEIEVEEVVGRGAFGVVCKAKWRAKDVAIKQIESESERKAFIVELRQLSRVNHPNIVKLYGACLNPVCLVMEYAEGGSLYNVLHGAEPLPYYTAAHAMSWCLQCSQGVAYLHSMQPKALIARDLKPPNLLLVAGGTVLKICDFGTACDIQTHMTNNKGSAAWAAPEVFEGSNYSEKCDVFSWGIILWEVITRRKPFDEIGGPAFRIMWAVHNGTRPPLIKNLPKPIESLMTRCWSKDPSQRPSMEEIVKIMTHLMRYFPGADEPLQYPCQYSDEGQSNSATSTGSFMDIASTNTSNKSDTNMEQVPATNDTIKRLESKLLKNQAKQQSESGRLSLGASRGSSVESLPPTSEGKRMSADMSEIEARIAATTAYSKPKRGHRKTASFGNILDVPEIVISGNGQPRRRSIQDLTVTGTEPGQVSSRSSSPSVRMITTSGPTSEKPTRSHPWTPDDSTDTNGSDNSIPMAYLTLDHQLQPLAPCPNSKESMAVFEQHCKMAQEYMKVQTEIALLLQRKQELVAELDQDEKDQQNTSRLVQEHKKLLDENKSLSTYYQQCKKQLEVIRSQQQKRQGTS

[2] = biological target: T4, transforming growth factor β‐activated kinase 1 (TAK1), endogenous (human (endogenous in MDA-MB-231)) (UniProt O43318); assay: co-IP; endogenous proteins; MDA-MB-231 cells in serum-free medium with CuSO4 (50 µM) or/and TTM (50 µM) for 14 h; lysate with anti-TAK1 antibody and protein A/G agarose 12 h at 4 °C; washed 4 times with NETN buffer (20 mM Tris-HCl pH 8.0, 150 mM NaCl, 0.5% NP-40, 1 mM EDTA)
T4 sequence: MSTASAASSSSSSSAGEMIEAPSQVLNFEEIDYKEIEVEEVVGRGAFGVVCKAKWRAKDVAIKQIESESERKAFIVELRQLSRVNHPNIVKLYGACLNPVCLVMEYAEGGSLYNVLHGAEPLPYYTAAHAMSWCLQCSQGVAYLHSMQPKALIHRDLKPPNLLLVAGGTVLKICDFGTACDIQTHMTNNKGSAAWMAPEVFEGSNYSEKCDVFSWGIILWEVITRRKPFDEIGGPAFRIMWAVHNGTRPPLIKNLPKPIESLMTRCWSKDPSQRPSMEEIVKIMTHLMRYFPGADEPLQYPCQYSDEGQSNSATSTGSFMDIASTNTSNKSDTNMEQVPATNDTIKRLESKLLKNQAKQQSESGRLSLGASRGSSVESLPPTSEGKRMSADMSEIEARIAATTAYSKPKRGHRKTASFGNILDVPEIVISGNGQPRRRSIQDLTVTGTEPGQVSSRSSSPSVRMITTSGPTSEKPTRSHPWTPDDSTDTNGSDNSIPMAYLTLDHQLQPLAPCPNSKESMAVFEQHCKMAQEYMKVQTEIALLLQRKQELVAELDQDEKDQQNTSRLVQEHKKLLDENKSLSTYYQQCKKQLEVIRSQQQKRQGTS

B1: IκB kinase β (IKKβ), endogenous, O14920 1-756 (protein)
chain: MSWSPSLTTQTCGAWEMKERLGTGGFGNVIRWHNQETGEQIAIKQCRQELSPRNRERWCLEIQIMRRLTHPNVVAARDVPEGMQNLAPNDLPLLAMEYCQGGDLRKYLNQFENCCGLREGAILTLLSDIASALRYLHENRIIHRDLKPENIVLQQGEQRLIHKIIDLGYAKELDQGSLCTSFVGTLQYLAPELLEQQKYTVTVDYWSFGTLAFECITGFRPFLPNWQPVQWHSKVRQKSEVDIVVSEDLNGTVKFSSSLPYPNNLNSVLAERLEKWLQLMLMWHPRQRGTDPTYGPNGCFKALDDILNLKLVHILNMVTGTIHTYPVTEDESLQSLKARIQQDTGIPEEDQELLQEAGLALIPDKPATQCISDGKLNEGHTLDMDLVFLFDNSKITYETQISPRPQPESVSCILQEPKRNLAFFQLRKVWGQVWHSIQTLKEDCNRLQQGQRAAMMNLLRNNSCLSKMKNSMASMSQQLKAKLDFFKTSIQIDLEKYSEQTEFGITSDKLLLAWREMEQAVELCGRENEVKLLVERMMALQTDIVDLQRSPMGRKQGGTLDDLEEQARELYRRLREKPRDQRTEGDSQEMVRLLLQAIQSFEKKVRVIYTQLSKTVVCKQKALELLPKVEEVVSLMNEDEKTVVRLQEKRQKELWNLLKIACSKVRGPVSGSPDSMNASRLSQPGQLMSQPSTASNSLPEPAKKSEELVAEAHNLCTLLENAIQDTVREQDQSFTALDWSWLQTEEEEHSCLEQAS
Question: How did the binding [1] turn out when B1 was run?
Answer: Its binding is “binds”.

B2: TAB1 (protein, UniProt Q15750 1-504)
chain: MAAQRRSLLQSEQQPSWTDDLPLCHLSGVGSASNRSYSADGKGTESHPPEDSWLKFRSENNCFLYGVFNGYDGNRVTNFVAQRLSAELLLGQLNAEHAEADVRRVLLQAFDVVERSFLESIDDALAEKASLQSQLPEGVPQHQLPPQYQKILERLKTLEREISGGAMAVVAVLLNNKLYVANVGTNRALLCKSTVDGLQVTQLNVDHTTENEDELFRLSQLGLDAGKIKQVGIICGQESTRRIGDYKVKYGYTDIDLLSAAKSKPIIAEPEIHGAQPLDGVTGFLVLMSEGLYKALEAAHGPGQANQEIAAMIDTEFAKQTSLDAVAQAVVDRVKRIHSDTFASGGERARFCPRHEDMTLLVRNFGYPLGEMSQPTPSPAPAAGGRVYPVSVPYSSAQSTSKTSVTLSLVMPSQGQMVNGAHSASTLDEATPTLTNQSPTLTLQSTNTHTQSSSSSSDGGLFRSRPAHSLPPGEDGRVEPYVDFAEFYRLWSVDHGEQSVVTAP
Question: Which results are given for B2?
Answer: binding (HA‐TAK1 (human)): binds; binding (HA‐TAK1‐2A (human)): binds; binding [2]: binds

B3: TAB2 (protein, UniProt Q9NYJ8 1-693)
chain: MAQGSHQIDFQVLHDLRQKFPEVPEVVVSRCMLQNNNNLDACCAVLSQESTRYLYGEGDLNFSDDSGISGLRNHMTSLNLDLQSQNIYHHGREGSRMNGSRTLTHSISDGQLQGGQSNSELFQQEPQTAPAQVPQGFNVFGMSSSSGASNSAPHLGFHLGSKGTSSLSQQTPRFNPIMVTLAPNIQTGRNTPTSLHIHGVPPPVLNSPQGNSIYIRPYITTPGGTTRQTQQHSGWVSQFNPMNPQQVYQPSQPGPWTTCPASNPLSHTSSQQPNQQGHQTSHVYMPISSPTTSQPPTIHSSGSSQSSAHSQYNIQNISTGPRKNQIEIKLEPPQRNNSSKLRSSGPRTSSTSSSVNSQTLNRNQPTVYIAASPPNTDELMSRSQPKVYISANAATGDEQVMRNQPTLFISTNSGASAASRNMSGQVSMGPAFIHHHPPKSRAIGNNSATSPRVVVTQPNTKYTFKITVSPNKPPAVSPGVVSPTFELTNLLNHPDHYVETENIQHLTDPTLAHVDRISETRKLSMGSDDAAYTQALLVHQKARMERLQRELEIQKKKLDKLKSEVNEMENNLTRRRLKRSNSISQIPSLEEMQQLRSCNRQLQIDIDCLTKEIDLFQARGPHFNPSAIHNFYDNIGFVGPVPPKPKDQRSIIKTPKTQDTEDDEGAQWNCTACTFLNHPALIRCEQCEMPRHF
Question: For B3, which binding (HA‐TAK1 (human)) is on record?
Answer: The binding was “binds”.

Question: What about the binding (HA‐TAK1‐2A (human)) of the same binder?
Answer: The binding was “binds”.

Question: And the binding [2]?
Answer: Its binding is “binds”.
